Consider 104 sequences from PubChem BioAssay AID1347423 (Functional Genomics Laboratory (NCATS/FGL), 2020).

The whole screen tested about 52,000 sequences, of which about 210 (0.4%) were called active.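 How the source made its calls: active means gene whose silencing raises cell survival under the drug, median off-target-corrected z-score across its silencing RNAs 2 or more; inactive means the rest.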 The list shows a part of the results.

This assay is described as follows: Resistance to Poly (ADP-Ribose) Polymerase inhibitor: Gene Identification via Genome-wide siRNA Screen. The note with it: mouse BRCA2 R2336H ES cells, olaparib, CellTiter-Glo viability; stronger effect = higher value. In outline: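 Genome-wide siRNA screen (3 siRNAs/gene, 20 nM) in mouse ES cells carrying hypomorphic BRCA2 R2336H; olaparib 500 nM added 48 h post-transfection, CellTiter-Glo viability 72 h later. Normalized to plate-median negative control; MAD z-scores, gene median, seed-adjusted.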
(In ATP-based viability assays light output follows the ATP content of the culture.)
With GGAAGACUCCUCAUACCUGTT against Ddit4, the z-score was inactive: 0.334.

For “GGAAGAGGAAGAAAAAAAGTT against 1700042N06Rik”, the z-score is inactive: -1.32.

Take GAUUUUCUGUAUCCAUCUATT against Olfr725: the z-score was inactive: -0.178.

In the case of “GGAUAACAAACCUGAAUCATT against 5430438H03Rik”, the z-score was inactive: 1.47.

With GGAAACUGUCAUCGAUAGGTT against Dlgap4, the z-score was inactive: 0.146.

Regarding GGCCAGUACUUUGCUAAACTT against Hnrpa1, the z-score was inactive: 1.07.

Take CCUGACCAAUGAAACCUUATT against Il22ra2: the z-score is inactive: 0.404.

Turning to “GAUGUACUUGAUAAAGCCUTT against 0610033E06Rik”, the z-score is inactive: 0.412.

For the sequence “GGACCACUCUGGUGGAUAATT against Simp-pending”, the z-score is inactive: -1.99.

Consider CGACAGUGAAUGCGCUAAGTT against Slc7a9, for which the z-score is inactive: 1.03.

On to GGCCUUGGUGAAAAUGCAGTT against Hrasls, for which the z-score was inactive: -1.32.

Regarding GCUGACUGAAUCACAAGCCTT against BC024139, the z-score was inactive: 0.593.

As for GGACGAUAAGCUUAGCCCUTT against Nfkbib, the z-score was inactive: 1.22.

For the sequence CCGACCACUACACAAGCCUTT against Olfr449, the z-score is inactive: 0.306.

Consider GCAUAUGACCUAAGAGUGATT against Slc6a7, for which the z-score is inactive: 1.62.

Turning to GCCCAUGAAAGAUGAUAUCTT against Ak2, the z-score is inactive: 0.75.

On to CCGCCUCCUGACAAAAGUGTT against Trim17, for which the z-score was inactive: -0.235.

GGAAGAGGAGAAGAAAAAGTT against Gcipip: the z-score was inactive: -1.02.

UCUCCUACCUAUGCACAUATT against Panx2: the z-score was inactive: -0.944.

As for GGCAUGGUUUGGAUUUGCGTT against Camk2b, the z-score was inactive: 0.162.

As to “GCUCCUGGCAUUAUUUUUUTT against 6530401C20Rik”, the z-score is inactive: 1.04.

In the case of CCAUAAGCACAUGAUUGAGTT against Prlpo, the z-score was inactive: 1.14.

On to GGUGGUUAGAUUGUCAUGCTT against V1rd7, for which the z-score was inactive: 0.486.

As to GCGAAUCACGCUGAAAGUCTT against Pdcd1lg1, the z-score was inactive: -0.398.

GGACACAAUUGAAAUAGACTT against Slc5a1: the z-score is inactive: 0.991.

For “CCUAUACCCUGGAAAGGCATT against F630022B06Rik”, the z-score was inactive: -0.944.

GCGGAAGUCGACCUUUGAUTT against Cd164: the z-score is inactive: -0.745.

With GGCAAGAUCUUCAAGUGAATT against Eef1g, the z-score was inactive: 1.94.

Regarding GCCCUUCAUGCUCAUGAGUTT against Hccs, the z-score was inactive: -0.97.

Regarding GGCUGUGUAUUACUGCGCUTT against Vpreb2, the z-score was inactive: -0.248.

As to “GGCCGAUUCCAUUGUACAGTT against 1700047I17Rik”, the z-score was inactive: -1.74.

Regarding CCACUUCCGAUGAGCCAGATT against Mrps10, the z-score is inactive: -2.38.

For “GGGAUAAGGGAAGUUAGGUTT against 4732486J07Rik”, the z-score is inactive: 0.808.

For “GGCUGUCCUUUUCCUCUUATT against A430107J06Rik”, the z-score was inactive: 0.489.

On to GGACACAGAAAAUAUCCCATT against Sct, for which the z-score was inactive: 0.572.

Turning to “GGAAGGUUUUACUCAGGCUTT against 1700034M03Rik”, the z-score is inactive: 0.372.

CCUAAUGAAUGGCUAAAUATT against Aps: the z-score was inactive: 0.693.

Regarding GGAAACAAGAGUUGGAUAGTT against Pclo, the z-score was inactive: -1.95.

With GGACCAUAAGCACAUGAUUTT against Prlpo, the z-score was inactive: -0.85.

Take GGAUCCUUCCAAAAGGAAATT against Alg3: the z-score is inactive: 1.46.

Take CCUUAGACAUCGAAGUAAUTT against Hrh4: the z-score was inactive: 1.61.

Consider GCAACUUGUUAGUGGACUCTT against Olfr620, for which the z-score was inactive: -1.67.

With “GCAUUAAAGUAGAAGGUCUTT against 4631426E05Rik”, the z-score is inactive: -0.381.

In the case of GCUAGGAGACAUUAGCUACTT against Slc13a4, the z-score is inactive: 0.737.

As for GGUUUUACACACUCCAUGATT against Olfr1246, the z-score was inactive: -0.192.

With GGAAACCUCGCAUCAAUUCTT against Rybp, the z-score is inactive: -0.672.

As to GGUUUGUGAAAGAUAAUGGTT against Gzmf, the z-score is inactive: 1.44.

On to UCAUCGCAACCAUCCACAGTT against Olfr530, for which the z-score is inactive: -0.606.

As to GGAGCUUCCUGCUAUUUUATT against Tmem5, the z-score was inactive: -0.134.

In the case of GGGUUGGAUUCCUACCCAGTT against AA986860, the z-score was inactive: 0.798.

On to “GCCUCUCAACUUAAUAACATT against 2700019D07Rik”, for which the z-score was inactive: -0.00102.

For “GCUGAGGAAAUGCGAAGUCTT against 6530411B15Rik”, the z-score is inactive: 0.675.

Consider GGAUUCUUGGUAGCCCAAATT against Magea2, for which the z-score was inactive: -1.34.

In the case of CGUAUGGAUGGAAUACAAUTT against Rap2b, the z-score is inactive: 0.482.

As to “CCUUACCACAUCCUUGUCGTT against 1110008B24Rik”, the z-score is inactive: -2.34.

Turning to “GGUUCUGGAGAACAGAGUCTT against 4930483J18Rik”, the z-score is inactive: -0.929.

Turning to CCCGUUGCAUGUUAUAUGCTT against Gtpbp3, the z-score was inactive: 0.671.

With “GGACAAAGUGAAUUAUAGCTT against 2310075C12Rik”, the z-score is inactive: 0.703.

Consider GGGAAUUCUAUUCAACACUTT against Rps6ka5, for which the z-score was inactive: 1.22.

On to CGUUUAUGUGUAUUAACCATT against Ppid, for which the z-score was inactive: -1.65.

Take GCUUUAUCUAUUUCACCAATT against Olfr1442: the z-score was inactive: 0.86.

On to “GGACUGAUAUCAUUUCUGATT against 4933425F06Rik”, for which the z-score is inactive: 0.792.

Turning to GCCGCCACAAAGUUUGCAUTT against Spock3, the z-score is inactive: -0.459.

As to “GGAAAUGACGACUACCAAGTT against D10Bwg0791e”, the z-score is inactive: 0.356.

In the case of CCUCAUUGUGGUUACCCUCTT against Olfr93, the z-score was inactive: -1.35.

As to GGACAGUACGCAAAGACCUTT against Rxra, the z-score is inactive: -0.924.

In the case of GGGCGAAGAUACAAGUGACTT against Tnp2, the z-score is inactive: -1.34.

Take GGCCUGCAUGGAACAAAUGTT against Gpr100: the z-score was inactive: -2.15.

Turning to “GCUUAGAGCAUUUCAGUCUTT against 2810406C15Rik”, the z-score is inactive: -1.95.

On to GGACCACCUUUUGGACAAATT against V1ri3, for which the z-score was inactive: -2.01.

GGAAAAGGUCCUGUGCUGUTT against Abhd2: the z-score is inactive: 0.338.

In the case of CGGAUAUCACUCUGAGAAGTT against Loxl4, the z-score was inactive: -0.629.

“GGAAGAGAGCAUUAAGCCCTT against 1200009C21Rik”: the z-score is inactive: -0.475.

As for GGAGACAGAAUUCAAAACUTT against P2ry1, the z-score is inactive: 1.46.

Consider GGCUUUGUGGAUUUUGAAGTT against Cabp4, for which the z-score was inactive: 0.312.

With GCCAUUAAUAAUCAGUACUTT against Sh2bpsm1, the z-score is inactive: 0.686.

As to CGUAGAAAGCUCAUUAUUUTT against Clmn, the z-score is inactive: -0.286.

As to CAACUCCGGAAGACCAGGATT against AW146299, the z-score was inactive: 2.02.

Regarding GCUCUGUUACUAUUUGAAUTT against Cts6, the z-score was inactive: 0.662.

As for GGCUAAGACUCUCUGAAAUTT against F2rl1, the z-score is inactive: -0.113.

In the case of CCAGUCACUAUUUGAGUGUTT against Erg, the z-score is inactive: 0.122.

As to GGAAAGACCAAAUCAGAUGTT against Arid5a, the z-score was inactive: -1.26.

For GGAAUUCCAGUUUCUUCAATT against Tle2, the z-score was inactive: 1.06.

As for GGAUCCAAGGGCAAAAGAUTT against Siat7a, the z-score is inactive: -1.18.

Regarding GCGUGUGAUUAAUAAAGUUTT against Vps54, the z-score was inactive: 0.999.

For GCCAUUAUAUAGUCCUACCTT against Klf1, the z-score is inactive: 0.276.

Regarding GCAAAGAAGCUCUUUAGAGTT against Hoxc5, the z-score was inactive: 0.595.

In the case of GGGCUGAAAGACUCAAAGCTT against Olfr577, the z-score is inactive: -0.529.

CCGAAUGUUCCAUGUUUGUTT against Lrrc5: the z-score is inactive: 1.

Turning to GGACAAUCCUGUCUUCCAGTT against Paox, the z-score is inactive: 2.02.

Take “GGAGAGAUUAAUUUCUGUATT against 4430402I18Rik”: the z-score was inactive: 0.0876.

For the sequence GGAAUUAGAGAACUUAGUUTT against Gclm, the z-score is inactive: -0.606.

With “GGAUUUAGCCAUGGAUUUCTT against D030014N22Rik”, the z-score is inactive: 0.105.

In the case of GGCACUGUAAAUGUACUCATT against Rbak, the z-score is inactive: 1.36.

In the case of GGAAUGUCAGUAAUCAGUGTT against Cox10, the z-score was inactive: -0.306.

For GGAUUUUAGCUGUUCUUGATT against Enpp1, the z-score was inactive: 0.431.

Consider GCGAAGUGGACAUCGUUGUTT against Ikbkb, for which the z-score is inactive: 0.516.

In the case of GGAAGCUUCCUAAUUCUUGTT against Slc16a1, the z-score was inactive: -1.31.

As to “CGGGAACAAAUCUAAAAUGTT against E130310N06”, the z-score is inactive: 0.729.

In the case of GGAAGCAGAGAAAAUCCUGTT against Fbxl12, the z-score was inactive: -0.466.

As to GGUAUUUAGGUUGAUAACATT against Takrp, the z-score is inactive: -0.726.

Turning to CAAAACCAUCCUUGGAAGUTT against Mrgpra8, the z-score is inactive: 1.8.

Regarding “GGAUAGAAAACAGUAUCUGTT against 2310009E04Rik”, the z-score is inactive: -0.09.

On to GGGCAUCAAGUGUAAAAAATT against Crsp9, for which the z-score was inactive: -0.181.
